Source: PMC9108620
No constants are given. Whether binding was seen depends on the method and setting. In cells and extracts the contact can be indirect. Some results given as binding are weak or reduced against the parent protein; the word gives no strength.

Sequences of proteins named here, by UniProt entry; tags and fusion partners are left off. A change or cut given only in a name is not applied to a line headed by its entry. A line that says so, or that is headed by a name, gives the form on record, which may keep a tag or linker.
UniProt Q99816: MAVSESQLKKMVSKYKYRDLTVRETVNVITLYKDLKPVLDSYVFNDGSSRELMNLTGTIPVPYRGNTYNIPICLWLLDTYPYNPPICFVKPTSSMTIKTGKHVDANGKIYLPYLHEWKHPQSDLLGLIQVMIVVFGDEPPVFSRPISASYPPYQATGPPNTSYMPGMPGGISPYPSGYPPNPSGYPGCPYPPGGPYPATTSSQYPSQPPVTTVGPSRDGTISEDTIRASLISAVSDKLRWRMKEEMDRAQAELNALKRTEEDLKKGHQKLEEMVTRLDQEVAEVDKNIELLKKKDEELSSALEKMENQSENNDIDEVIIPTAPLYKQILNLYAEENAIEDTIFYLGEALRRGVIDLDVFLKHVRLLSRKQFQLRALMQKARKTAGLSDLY
GFP-tagged SPHK1, wild type (Q9NYA1-2, form named): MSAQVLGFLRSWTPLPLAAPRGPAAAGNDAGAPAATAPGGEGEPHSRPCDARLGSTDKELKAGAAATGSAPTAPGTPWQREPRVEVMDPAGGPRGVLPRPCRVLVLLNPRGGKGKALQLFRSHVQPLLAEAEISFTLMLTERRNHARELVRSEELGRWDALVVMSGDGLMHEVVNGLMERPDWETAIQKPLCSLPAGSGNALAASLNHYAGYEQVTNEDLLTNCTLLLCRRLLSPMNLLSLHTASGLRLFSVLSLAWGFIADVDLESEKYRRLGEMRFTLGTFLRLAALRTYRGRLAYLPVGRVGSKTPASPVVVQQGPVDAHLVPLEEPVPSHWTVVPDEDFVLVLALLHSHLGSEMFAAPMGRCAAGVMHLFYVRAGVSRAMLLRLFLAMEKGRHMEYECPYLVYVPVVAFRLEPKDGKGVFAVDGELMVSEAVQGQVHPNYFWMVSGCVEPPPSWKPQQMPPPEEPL

Columns and labels:
[1] = target: tumor susceptibility gene 101 protein (TSG101), endogenous in HeyA8 cells (human (endogenous in HeyA8)) (UniProt Q99816); test: proximity ligation; in situ PLA in HeyA8 cells with target-specific antibodies against SPHK1 and TSG101; red PLA dots counted
GFP-tagged TSG101 = GFP-tagged TSG101 (UniProt Q99816); test: co-IP; GFP-Trap beads on cells expressing GFP-tagged SPHK1 or TSG101-GFP; partners detected by immunoblotting; the crosslinker DTSSP stabilized the interaction
[2] = target: GFP-tagged SPHK1, wild type (UniProt Q9NYA1); test: pull-down; GFP-Trap pulldown from HeyA8 cells transfected with wild-type or PTAP-mutated SPHK1 plasmids; TSG101 detected by western blotting
[3] = target: GFP-tagged SPHK1, wild type (UniProt Q9NYA1); test: co-IP; GFP-Trap beads on cells expressing GFP-tagged SPHK1 or TSG101-GFP; partners detected by immunoblotting; the crosslinker DTSSP stabilized the interaction

Row | binding [1] | binding (GFP-tagged TSG101) | binding [2] | binding [3] | Substance
1 | binds | binds | – | – | sphingosine kinase-1 (SPHK1), endogenous in HeyA8 cells (from UniProt Q9NYA1-2 1-470) (enzyme)
2 | – | – | binds | binds | tumor susceptibility gene 101 protein (TSG101), endogenous in HeyA8 cells (from UniProt Q99816 1-390)
